The target of series [1] is T1, ToPif1 (wild type) (Thermus oshimai) (UniProt K7RJ88).
T1 sequence (looked up): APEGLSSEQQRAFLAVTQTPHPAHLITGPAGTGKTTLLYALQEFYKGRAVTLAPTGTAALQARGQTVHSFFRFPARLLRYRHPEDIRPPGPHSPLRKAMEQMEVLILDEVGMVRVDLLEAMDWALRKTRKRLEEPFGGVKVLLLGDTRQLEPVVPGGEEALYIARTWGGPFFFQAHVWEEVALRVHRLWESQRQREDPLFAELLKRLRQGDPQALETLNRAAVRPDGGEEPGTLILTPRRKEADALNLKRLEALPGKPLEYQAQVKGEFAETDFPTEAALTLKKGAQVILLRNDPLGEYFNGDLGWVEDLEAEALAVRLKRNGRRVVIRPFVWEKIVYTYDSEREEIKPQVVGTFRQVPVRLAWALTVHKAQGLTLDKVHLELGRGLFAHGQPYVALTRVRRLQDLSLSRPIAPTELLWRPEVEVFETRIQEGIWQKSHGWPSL
Nature of the series: X-ray crystallography. Particulars: ADP·AlF4; residues 64-507.

The target in series [2] is T1, ToPif1 (wild type) (Thermus oshimai). Nature of the series: fluorescence anisotropy. To be noted: 0.5 mM ADP·AlF4, 2 mM Mg2+, text: bound only weakly; residues 64-507. In general terms: Polarisation of emitted light reports the rotation of a fluorescent probe.

Where a protein sequence is shown, tags need not be part of it. For some assays here: Construct, isoform or probe ends are uncertain for at least one entry.

By Kd is commonly meant the equilibrium constant for the complex coming apart.

As for GGTTTGGTTTGGTTTGG [GR17], in series [1], the binding result was “binds”.

“GCCCTGGTGCCGACCAACGAAGGT (double strand) [D24]” came in with a Kd in series [2] greater than 250 nM.

Source of the values: paper doi:10.1101/2021.08.24.457465.
